Reference: PubChem BioAssay AID1671190 (National Center for Advancing Translational Sciences (NCATS), 2021)
Out of some 580,000 compounds screened, about 6,100 (1.1%) were called active. Inconclusive results, whose numbers are uncertain, are shown with a selection of clear calls. The call rests on the fitted dose curve; in most records, active means well fitted inhibition curve with a large enough effect; inconclusive means small, poorly fitted or top-dose-only effect, or another doubt; inactive means no such curve, though single readings can be large or run the other way. Potencies beside an inconclusive call are fits to weak or partial responses and may not hold up.

Amino acid sequences for entries named in this document (tags omitted). A change or cut given only in a name is not applied to a line headed by its entry.
UniProt P18054: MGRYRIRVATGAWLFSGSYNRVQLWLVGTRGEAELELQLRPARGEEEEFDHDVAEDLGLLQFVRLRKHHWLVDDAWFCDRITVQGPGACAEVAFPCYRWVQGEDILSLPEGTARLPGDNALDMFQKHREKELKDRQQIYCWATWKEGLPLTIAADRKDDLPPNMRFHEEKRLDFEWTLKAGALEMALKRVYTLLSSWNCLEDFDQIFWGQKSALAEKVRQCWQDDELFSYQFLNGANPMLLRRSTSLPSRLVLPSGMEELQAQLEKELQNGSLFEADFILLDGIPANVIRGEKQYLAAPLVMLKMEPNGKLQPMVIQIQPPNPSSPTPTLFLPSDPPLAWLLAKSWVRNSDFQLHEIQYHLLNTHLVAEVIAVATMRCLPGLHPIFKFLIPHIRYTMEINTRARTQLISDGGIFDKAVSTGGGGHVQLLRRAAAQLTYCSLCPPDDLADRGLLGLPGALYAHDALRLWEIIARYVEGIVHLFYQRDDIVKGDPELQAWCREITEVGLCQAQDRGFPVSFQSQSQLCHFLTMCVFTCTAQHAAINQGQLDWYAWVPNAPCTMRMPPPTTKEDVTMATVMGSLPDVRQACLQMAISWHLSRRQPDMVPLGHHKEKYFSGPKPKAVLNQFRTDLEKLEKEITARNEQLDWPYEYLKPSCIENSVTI

Target: Polyunsaturated fatty acid lipoxygenase ALOX12 (Homo sapiens) (UniProt P18054)
Test: Primary qHTS assay for inhibitors of human arachidonate 12S-lipoxygenase (ALOX12): Round 2
Conditions: purified 12hLO, xylenol orange hydroperoxide absorbance; activity change, negative = inhibition: at 108 µM (top of the series) unless noted
Procedure, shortened: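 Purified human 12hLO (150 nM final) in 25 mM Hepes, 0.01% Triton X-100, pH 7.0 was preincubated 15 min at room temperature with compound. Then 40 uM arachidonic acid was added, 30 min. Hydroperoxide was read by Fe-XO absorbance ratio 573/405 nm.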
On the % scale 0 is the no-effect control and ±100 the full control effect; potency means the concentration at half of the fitted maximal effect.

Compound	Potency	activity change, negative = inhibition
O=C(CSc1nc(Nc2ccccc2)nc(N2CCOCC2)n1)Nc1ccc2c(c1)OCCO2	inconclusive: 44.7 µM [inhibitor, partial curve, poor fit]	–
CCCn1c(-c2cc(OC)c(OC)c(OC)c2)nc2c1c(=O)[nH]c(=O)n2Cc1ccccc1	inconclusive: 112 µM [inhibitor, single point]	–
CN(C)C(CNC(=O)c1ccc([N+](=O)[O-])cc1Cl)c1ccco1 (centres undefined)	inconclusive: 126 µM [inhibitor, single point]	–
O=C1OC(c2cc(I)c(O)c(I)c2)(c2cc(I)c(O)c(I)c2)c2ccccc21	active: 10 µM	–
FC(F)(F)c1cccc(N2CCN(Cc3ccoc3)CC2)c1	inconclusive: 0.355 µM [inhibitor, full curve, poor fit]	–
Cn1c2ccccc2c2cc(/C=C(\NC(=O)c3ccccc3)C(=O)O)ccc21	inconclusive: 70.8 µM [inhibitor, partial curve, poor fit]	–
Cn1cc(CC(=O)Nc2cccc(C#N)c2)c2ccccc21	inconclusive: 100 µM [inhibitor, partial curve, poor fit]	–
Cc1cccc(OCCCC(=O)Nc2sc3c(c2C(N)=O)CCC(C)C3)c1 (centres undefined)	inconclusive: 126 µM [inhibitor, partial curve, poor fit]	–
Cc1cc2cc(CNC(=S)Nc3ccc(OC(F)(F)F)cc3)ccc2[nH]1	active: 31.6 µM	–
COc1ccc2c(CNCC(C)c3ccccc3)c(C(=O)O)n(Cc3ccc(F)cc3Cl)c2c1 (centres undefined)	inconclusive: 56.2 µM [inhibitor, partial curve, poor fit]	–
CC(=O)O/N=C/c1c(NCc2ccccc2)nc2c(C)cccn2c1=O	inconclusive: 0.891 µM [inhibitor, full curve, poor fit]	–
S=c1[nH]nc(COc2ccccc2)n1/N=C/c1ccccn1	active: 1.58 µM	–
COc1cccc(-c2ccc3ncnc(N4CCN(C)CC4)c3c2)c1	–	inactive: -12.5%
CCOc1ccc(NC(=O)COC(=O)c2cc(=O)c3ccccc3o2)cc1	inconclusive: 112 µM [inhibitor, single point]	–
CNC(=O)[C@@H](c1ccc(Cl)cc1)N1CCC[C@H]1C(=O)N1CCCC1	–	inactive: 1.61% [at 176 µM]
COc1cccc2cc(-c3cc(=O)oc4ccc(OCC(C)=O)cc34)oc12	–	inactive: 2.27%
COc1cc(NC(=O)c2ccccc2)c(OC)cc1NC(C)=O	inconclusive: 39.8 µM [inhibitor, partial curve, poor fit]	–
COc1ccc(C(=O)Nc2ccc3oc(-c4ccccc4OC)cc(=O)c3c2)cc1	inconclusive: 50.1 µM [inhibitor, partial curve, poor fit]	–
C[C@H](CO)N1C[C@H](C)[C@@H](CN(C)Cc2ccccn2)Oc2ncc(Br)cc2C1=O	inconclusive: 28.2 µM [inhibitor, partial curve, poor fit]	–
O=S(=O)(NCCNCC=Cc1ccc(Br)cc1)c1cccc2cnccc12	inconclusive: 7.69 µM [inhibitor, partial curve, poor fit]	–
CCOc1ccc(N(CC(=O)Nc2ccccc2)S(C)(=O)=O)cc1	inconclusive: 50.1 µM [inhibitor, partial curve, poor fit]	–
CCc1nc2c(c(-c3ccc(Cl)cc3)n1)CN(Cc1ccc(N(C)C)cc1)CC2	inconclusive: 89.1 µM [inhibitor, single point]	–
Cc1cc(C(=O)N2CCN(c3ncccn3)CC2)c2c(C)noc2n1	–	inactive: 2.81%

In the list so far, 13 contain nitrogen in an aromatic ring.
Compound	Potency	activity change, negative = inhibition
O=C(CSc1nc(Nc2ccccc2)nc(N2CCOCC2)n1)Nc1ccc2c(c1)OCCO2	inconclusive: 44.7 µM [inhibitor, partial curve, poor fit]	–
CCCn1c(-c2cc(OC)c(OC)c(OC)c2)nc2c1c(=O)[nH]c(=O)n2Cc1ccccc1	inconclusive: 112 µM [inhibitor, single point]	–
Cn1c2ccccc2c2cc(/C=C(\NC(=O)c3ccccc3)C(=O)O)ccc21	inconclusive: 70.8 µM [inhibitor, partial curve, poor fit]	–
Cn1cc(CC(=O)Nc2cccc(C#N)c2)c2ccccc21	inconclusive: 100 µM [inhibitor, partial curve, poor fit]	–
Cc1cc2cc(CNC(=S)Nc3ccc(OC(F)(F)F)cc3)ccc2[nH]1	active: 31.6 µM	–
COc1ccc2c(CNCC(C)c3ccccc3)c(C(=O)O)n(Cc3ccc(F)cc3Cl)c2c1 (centres undefined)	inconclusive: 56.2 µM [inhibitor, partial curve, poor fit]	–
CC(=O)O/N=C/c1c(NCc2ccccc2)nc2c(C)cccn2c1=O	inconclusive: 0.891 µM [inhibitor, full curve, poor fit]	–
S=c1[nH]nc(COc2ccccc2)n1/N=C/c1ccccn1	active: 1.58 µM	–
COc1cccc(-c2ccc3ncnc(N4CCN(C)CC4)c3c2)c1	–	inactive: -12.5%
C[C@H](CO)N1C[C@H](C)[C@@H](CN(C)Cc2ccccn2)Oc2ncc(Br)cc2C1=O	inconclusive: 28.2 µM [inhibitor, partial curve, poor fit]	–
O=S(=O)(NCCNCC=Cc1ccc(Br)cc1)c1cccc2cnccc12	inconclusive: 7.69 µM [inhibitor, partial curve, poor fit]	–
CCc1nc2c(c(-c3ccc(Cl)cc3)n1)CN(Cc1ccc(N(C)C)cc1)CC2	inconclusive: 89.1 µM [inhibitor, single point]	–
Cc1cc(C(=O)N2CCN(c3ncccn3)CC2)c2c(C)noc2n1	–	inactive: 2.81%

Looked up by structure from above:
Compound	Potency	activity change, negative = inhibition
CC(=O)O/N=C/c1c(NCc2ccccc2)nc2c(C)cccn2c1=O	inconclusive: 0.891 µM [inhibitor, full curve, poor fit]	–
S=c1[nH]nc(COc2ccccc2)n1/N=C/c1ccccn1	active: 1.58 µM	–

Further entries.

Compound	Potency	activity change, negative = inhibition
CC1(C)Cc2c(sc(NC(=O)C(=O)NCc3cccnc3)c2C#N)CO1	inconclusive: 5.62 µM [inhibitor, full curve, poor fit]	–
Cc1ccc(Oc2ncccc2NC(=O)CC2(CC(=O)O)CCCC2)c2c1CCC2	–	inactive: 0%
O=C(COC(=O)c1ccccc1NC(=O)c1ccco1)Nc1ncc(Cl)cc1Cl	inconclusive: 28.2 µM [inhibitor, partial curve, poor fit]	–
CC1(C)CC(=O)C2=C(C1)NC(SCC(N)=O)=C(C#N)C21CCCCC1	–	inactive: -2.71%
O=C(O)C(F)(F)c1ccc(F)cc1	inconclusive: 5.62 µM [inhibitor, full curve]	–
COc1ccc(NC(=O)NC[C@H]2O[C@@H]3C[C@@H](CC(=O)N4CCC(F)(F)C4)O[C@@H]3[C@@H]2O)cc1	–	inactive: 49.6%
CCn1c(C)c(/C=C/c2cc[n+](C)cc2)c2cc(C)ccc21	inconclusive: 44.7 µM [inhibitor, partial curve, poor fit]	–
Cc1nc(-c2ccc(S(=O)(=O)Nc3ccc(Cl)cc3C)cc2)co1	inconclusive: 89.1 µM [inhibitor, partial curve, poor fit]	–
CC(C)NC(=O)N1CCCC2(CCN(C(=O)c3ccco3)CC2)C1	inconclusive: 28.2 µM [inhibitor, single point]	–
COc1ccc(-c2ncc3c(n2)OCCN(c2ccccc2)C3=O)cc1F	–	inactive: 46.7% [at 176 µM]
O=C(NCC1CCCC(CNC(=O)N2CCc3ccccc32)C1)N1CCc2ccccc21 (centres undefined)	–	inactive: -0.344%
CSc1ncc(CNc2cc([N+](=O)[O-])ccc2C)c(N)n1	–	inactive: -8.3%
Nc1c(-c2ccccc2)nc2ncccn12	–	inactive: -2.37%
O=C(Cn1cnc2ccccc21)N/N=C/c1cccnc1	inconclusive: 126 µM [inhibitor, single point]	–
COc1cccc(CNC(=O)Cn2c(=O)[nH]c3c(-c4ccccc4F)c[nH]c3c2=O)c1	–	inactive: -21.2%
CC1CCCN(S(=O)(=O)c2ccc(C(=O)Nc3nnc(-c4ccccc4Cl)o3)cc2)C1 (centres undefined)	–	inactive: -10.1%
COc1ccc(-c2nn(CC(=O)NC3CCCC3)c3c2cnc2ccc(F)cc23)cc1	inconclusive: 100 µM [inhibitor, partial curve, poor fit]	–
Cc1cc(C(C)(C)C)ccc1OCCOCCN1CCCC1	inconclusive: 0.251 µM [inhibitor, full curve, poor fit]	–
CCc1nnc(NC(=O)CCc2ccc(-c3ccc(C)cc3)o2)s1	inconclusive: 50.1 µM [inhibitor, partial curve, poor fit]	–
CCSc1cc(N2CCCC2)nc(-c2ccc(Cl)cc2)n1	–	inactive: -10.3%
COc1ccc(S(=O)(=O)N2CCCCC2c2cc(C(=O)Nc3ccc(F)c(Cl)c3)no2)cc1 (centres undefined)	–	inactive: -16.1%
CCN(CC)S(=O)(=O)c1ccc(N(C)CCOc2ccc(Br)cc2)nc1	–	inactive: -1.23%
Cn1c(=O)c2c(ncn2CC(=O)N(C2CCCCC2)C2CCS(=O)(=O)C2)n(C)c1=O (centres undefined)	–	inactive: -2.34%

Compound	Potency	activity change, negative = inhibition
Cc1cc(C)n(CCc2nc(-c3ccco3)cs2)n1	inconclusive: 7.08 µM [inhibitor, full curve, poor fit]	–
CCc1ccc(C(=O)N2CCC(n3cnnc3COC)CC2)cc1	–	inactive: 35.1%
Cc1ccc(CN(C)C(=O)c2ccc(C3SCCS3)cc2)c(C)c1	inconclusive: 56.2 µM [inhibitor, partial curve, poor fit]	–
Cc1cccc(C(=O)Nc2ccc(NC(=S)NC(=O)c3cccc(Cl)c3)cc2)c1	active: 17.8 µM	–
N=C(N)SCCc1cnc[nH]1	inconclusive: 31.6 µM [inhibitor, single point]	–
CCCCCNC(=O)COC(=O)c1cc2c(C)cc(C)cc2[nH]1	inconclusive: 7.08 µM [inhibitor, full curve, poor fit]	–
Cc1ccc(-c2cc(C(=O)NC3CC3)c3ccccc3n2)o1	active: 12.6 µM	–
Cc1noc(C)c1S(=O)(=O)N(Cc1ccccc1)C(C)C	inconclusive: 44.7 µM [inhibitor, single point]	–
O=C(Nc1nc2c(Br)cc(Br)cc2c(=O)s1)C1CCC1	inconclusive: 70.8 µM [inhibitor, partial curve, poor fit]	–
O=C(NC(c1ccccc1)c1ccccc1)c1ccc(=O)[nH]n1	–	inactive: -12.7%
O=C(c1nc(-c2cccnc2)no1)N1CCN(c2ccc(Cl)c(Cl)c2)CC1	–	inactive: -16.5%
O=C(N/N=C/c1ccco1)c1cc(-c2ccc(Cl)s2)[nH]n1	inconclusive: 39.8 µM [inhibitor, partial curve, poor fit]	–
COc1ccc(NC(C)=O)cc1NC(=O)CN1CCN(C2c3ccccc3-c3ccccc32)CC1	inconclusive: 112 µM [inhibitor, partial curve, poor fit]	–
CSc1cccc(NC(=O)COc2ccccc2)c1	–	inactive: -8.33%
CNC[C@H](O)c1cccc(O)c1	inconclusive: 31.6 µM [inhibitor, partial curve, poor fit]	–
Cc1ccc(-c2noc(CCCN3C(=O)c4ccccc4C3=O)n2)cc1	inconclusive: 200 µM [inhibitor, partial curve, poor fit]	–
CC1C(=O)N(Cc2cn(Cc3ccco3)nn2)CCS(=O)(=O)N1Cc1ccc(-c2ccccc2Cl)cc1 (centres undefined)	–	inconclusive: -38.4% [inhibitor]
N#Cc1ccc(OCc2nc(-c3ccc(Br)o3)no2)cc1	–	inactive: 0%
CC(=O)NCCNC(=O)c1cnn(-c2nccc(-c3cc(C)sc3C)n2)c1C	inconclusive: 112 µM [inhibitor, single point]	–
Cc1ccc(O)c(NC(=S)NC(=O)/C=C/c2ccco2)c1	inconclusive: 2 µM [inhibitor, full curve, poor fit]	–
COc1ccc(-c2csc(NC(=O)CN3C(=O)C4CCCCC4C3=O)n2)cc1OC (centres undefined)	inconclusive: 31.6 µM [inhibitor, partial curve]	–
COCCNC(=O)c1c(OCC2CC2)cc(=O)n2c1CCOCC2	–	inactive: 38.1%
COc1ccc(NC(=O)COc2ccccc2C)cc1S(=O)(=O)N1CCCCC1	inconclusive: 44.7 µM [inhibitor, partial curve, poor fit]	–
